Assay results reported in PMC6134127.
Results are given in words; binding and its absence hold for the method and conditions named. Binding can be weak; no strength is given.

What was measured:
Assay in all cases: two-hybrid; Gal4-based Matchmaker system (Clontech), yeast AH109; VPg as bait in pGBKT7, eIF4E/eIF(iso)4E as prey in pGADT7; growth on SD-LW/SD-LWH/SD-LWHA, 30 °C, checked after 3-5 days; in triplicate
[1] = target: viral protein linked to the genome (VPg) of Turnip mosaic virus isolate C4 (Turnip mosaic virus isolate C4)
[2] = target: viral protein linked to the genome (VPg) of Turnip mosaic virus isolate CDN1 (Turnip mosaic virus isolate CDN1)
[3] = target: viral protein linked to the genome (VPg) of Turnip mosaic virus isolate UK1 (Turnip mosaic virus isolate UK1)

Measured: binding

B1: Arabidopsis eIF(iso)4E (LSP) (protein, UniProt O04663 1-198)
chain: MATDDVNEPLPAAAELPATEAEKQPHKLERKWSFWFDNQSKKGAAWGASLRKAYTFDTVEDFWGLHETIFQTSKLTANAEIHLFKAGVEPKWEDPECANGGKWTWVVTANRKEALDKGWLETLMALIGEQFDEADEICGVVASVRPQSKQDKLSLWTRTKSNEAVLMGIGKKWKEILDVTDKITFNNHDDSRRSRFTV
binds: [1] | [2] | [3]
